Taken from: PubChem BioAssay AID504744 (Drosophila RNAi Screening Center, 2011)
The deposit covers about 23,000 reagents; below is an unselected part of those with a known target gene and a result. Of all reagents, 98 (0.43%) got an active call. 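Only hit calls are given; the phospho-dAkt signals, z-scores and hit direction were not deposited.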 A plus sign joins genes that one reagent is predicted to hit.

- Aim: 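Identify dsRNAs that increase or decrease phospho-dAkt after insulin treatment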 (primary screen)
- System: Drosophila Kc167 cells
- Reagents: long dsRNA against Drosophila genes, 250 ng dsRNA per well of a 384-well plate
- Timing: 3 days of knock-down, then overnight serum-free starvation before stimulation
- Treatment: bovine insulin at 387 nM for 10 minutes after 12 h without serum
- Detection: 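In-cell antibody fluorescence for phospho-dAkt in each well over DNA-dye signal, with log2 residuals expressed as z-scores adjusted for cell count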
- Call rule: 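Under insulin, a gene counts as a hit if the average z-score of two replicates lies above 2.5 or below -2.5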

no.	gene knocked down	DRSC id	activity call
1	Tsp42Eq	DRSC06180	inactive
2	Ir76a	DRSC10987	inactive
3	dsx-c73A	DRSC09435	inactive
4	dsx-c73A	DRSC09914	inactive
5	dsx-c73A	DRSC10429	inactive
6	CG15546	DRSC15084	inactive
7	CG15546	DRSC22831	inactive
8	Cyp6g1	DRSC07386	inactive
9	CG11885	DRSC00329	inactive
10	CG2811	DRSC04318	inactive
11	stil	DRSC07699	inactive
12	CG5171	DRSC02823	inactive
13	CG13814 (retired record)	DRSC10069	inactive
14	Tollo	DRSC11305	inactive
15	RpL7A	DRSC18709	inactive
16	Jhbp1	DRSC12167	inactive
17	CG14441	DRSC17934	inactive
18	CG9171	DRSC03152	inactive
19	CG9171	DRSC21813	inactive
20	Lnk	DRSC16729	inactive
21	CG30184	DRSC22277	inactive
22	CG8142	DRSC20086	inactive
23	CG10345	DRSC14138	inactive
24	Hibch	DRSC15705	inactive
25	CG5614	DRSC15845	inactive
26	PH4alphaSG1	DRSC15080	inactive
27	GstD3	DRSC15571	inactive
28	Idh3b	DRSC16040	inactive
29	CG11123	DRSC06040	inactive
30	CG14767	DRSC06500	inactive
31	Desat1	DRSC16668	inactive
32	Urm1	DRSC22941	inactive
33	CG15742	DRSC19708	inactive
34	nrv2	DRSC00948	inactive
35	nrv2	DRSC03383	inactive
36	Spn77Bb + Spn77Bc	DRSC10689	inactive
37	Spn77Bb + Spn77Bc	DRSC11793	inactive
38	RpL34b	DRSC16475	inactive
39	Rtnl2	DRSC12609	inactive
40	Rtnl2	DRSC21655	inactive
41	Ebp	DRSC04048	inactive
42	CG16710	DRSC15136	inactive
43	TTLL1B	DRSC08594	inactive
44	CG7786	DRSC07045	inactive
45	TwdlW	DRSC15540	inactive
46	Hsp67Ba	DRSC11191	inactive
47	CG31823	DRSC01887	inactive
48	CG34404	DRSC15335	inactive
49	CG34404	DRSC15978	inactive
50	CG13217	DRSC06339	active
51	CG7387	DRSC10833	inactive
52	Topors	DRSC06531	inactive
53	CG14990	DRSC08449	inactive
54	sba	DRSC13643	inactive
55	sba	DRSC17050	inactive
56	Gapdh2	DRSC20246	inactive
57	MED10	DRSC10474	inactive
58	CG6244	DRSC10609	inactive
59	CG1806	DRSC19787	inactive
60	l(2)34Fc	DRSC01910	inactive
61	CG44774	DRSC18342	active
62	CG4709	DRSC02772	inactive
63	Grd	DRSC11178	inactive
64	CG4613	DRSC10435	inactive

Look-ups from above.
CG34404 [DRSC15335], activity call → inactive
Entry of RpL7A [DRSC18709] under “activity call”: inactive
For “activity call”, CG34404 [DRSC15978] has inactive
